Measured values from patent publication US11944628B2, “Methods for the use of low-dose immune modulators transiently for treating patients undergoing protein replacement therapy” (Duke University, priority 2017, dated 2024).

Tested on: anti-rhGAA IgG antibodies
Assay: Anti-rhGAA IgG antibody titers over time (ELISA, confirmed by radioimmunoprecipitation) in Pompe disease patients on ERT with TLD-MTX or on ERT monotherapy (comparators)
Format: in vivo, human
Description: Methotrexate at 0.4 mg/kg body weight was administered subcutaneously (or orally if subcutaneous administration was not possible) on three consecutive days/MTX cycle/infusion; with the first three ERT infusions (i.e., on Days 0, 14, and 28 for patients infused EOW) for a total of 3 cycles. On the day of ERT infusion, methotrexate was administered 15 minutes (if subcutaneous) or 1 hour (if oral) before infusion initiation and again on the following 2 days. To exemplify the schedule, in a patient receiving ERT infusion EOW, methotrexate was administered on Days 0, 1, and 2 (first cycle); Days 14, 15, and 16 (second cycle), and Days 28, 29, and 30 (third cycle). As stated earlier, the dose and frequency of ERT could be increased at the discretion of the treating physician, based on patients' clinical and IAR status, in which case methotrexate cycles were adjusted accordingly (see FIG. 2 for details).
Anti-rhGAA IgG antibodies were determined by Sanofi Genzyme (Framingham, MA, USA) using enzyme-linked immunosorbent assays and confirmed using radioimmunoprecipitation as described previously (Kishnani et al. (2006) J. Pediatr. 149:89-97). Antibody analyses were recommended to be performed at Days −1, 28, 56, 84, 112, 140, 168, 196, 224, 252, 280, 308, 336, and 364.
rhGAA IgG titers were determined over time. Patients were classified into HSAT (≥51,200 on ≥2 occasions at or beyond 6 months on ERT), sustained intermediate titer (SIT) (≥12,800 and <51,200 within the first year of ERT), and low titer (LT; ≤6,400 within the first year of ERT) groups based on the longitudinal anti-rhGAA IgG titers. […] Medians and ranges were determined for baseline, peak, and last titers, although our focus was on longitudinal titers through time because sustained titers affect clinical response.
The comparators received rhGAA alone. The GAA variant data and age at ERT initiation were compared with our cohort of TLD-MTX recipients. Immune responses over time were classified into HSAT, SIT, and LT as defined above, and time to seroconversion, peak titers, titers at Weeks 12, 24, and 52 were compared with our present cohort of TLD-MTX recipients.

Molecule | Time since ERT initiation (median time of peak titer) (HSAT group, IOPD) [weeks] | Time since ERT initiation (median time of peak titer) (LT group, IOPD) [weeks] | Time since ERT initiation (median time of peak titer) (SIT group, IOPD) [weeks] | Seroconversion week (median time to seroconversion) (LT group, IOPD) [weeks] | Time on ERT (peak titer), median (median of 14 IOPD patients on TLD-MTX protocol) [weeks]
Alglucosidase alfa [ERT monotherapy] | 82 | 38 | 12 |  | 
CN(Cc1cnc2nc(N)nc(N)c2n1)c1ccc(C(=O)N[C@@H](CCC(=O)O)C(=O)O)cc1 [methotrexate] |  | 20.5 |  | 6 | 20.5
